Data published in EPA's aquatic toxicity sets.

Tested on: Pimephales promelas
Test: 96 h LC50 (-log10 mol/L); higher = more toxic

SMILES | 96 h LC50 (-log10 mol/L)
CC(C)(C)c1ccc(O)cc1 | 4.47
CCCCCCCC1CCC(=O)O1 (configuration not stated) | 2.09
